{
  "source": "patent US6800464B2",
  "about": "“Arthrobacter D-carbamoylase and methods of preparing enantiomerically enriched D-amino acids” (Degussa AG, priority 2001, dated 2004)",
  "molecules": {"B1": {"name": "D-carbamoylase: homogeneously purified recombinant D-carbamoylase from Arthrobacter crystallopoietes DSM 20117 (SEQ ID NO: 2) (protein)", "chain": "MAKNLMLAVAQVGGIDSSESRPEVVARLIALLEEAASQGAELVVFPELTLTTFFPRTWFEEGDFEEYFDKSMPNDDVAPLFERAKDLGVGFYLGYAELTSDEKRYNTSILVNKHGDIVGKYRKMHLPGHADNREGLPNQHLEKKYFREGDLGFGVFDFHGVQVGMCLCNDRRWPEVYRSLALQGAELVVLGYNTPDFVPGWQEEPHAKMFTHLLSLQAGAYQNSVFVAAAGKSGFEDGHHMIGGSAVAAPSGEILAKAAGEGDEVVVVKADIDMGKPYKESVFDFAAHRRPDAYGIIAERKGRGAPLPVPFNVND", "modifications": "OTHER INFORMATION: … DNA"}},
  "test": "Heat stability of the D-carbamoylase",
  "assay_type": "physicochemical",
  "details": "4° C., 0.1 M KPB pH 8.0, 4 days",
  "note": "At least one read-out could not be matched to a standard name with certainty.",
  "data": [
    {"molecule": "B1", "values": [
      {"measurement": "half-life of the enzyme", "result": "approximately 100 hours"}
    ]}
  ]
}
